PMC6762199
No constants are given. Whether binding was seen depends on the method and setting. Binding seen in cells or lysates may run through a third protein. Some binding calls cover weakened binding; strength is not graded here.

The chains behind the UniProt entries cited, without tags or fusion partners. Residues count along the entry.
UniProt Q99IB8, residues 1977-2442: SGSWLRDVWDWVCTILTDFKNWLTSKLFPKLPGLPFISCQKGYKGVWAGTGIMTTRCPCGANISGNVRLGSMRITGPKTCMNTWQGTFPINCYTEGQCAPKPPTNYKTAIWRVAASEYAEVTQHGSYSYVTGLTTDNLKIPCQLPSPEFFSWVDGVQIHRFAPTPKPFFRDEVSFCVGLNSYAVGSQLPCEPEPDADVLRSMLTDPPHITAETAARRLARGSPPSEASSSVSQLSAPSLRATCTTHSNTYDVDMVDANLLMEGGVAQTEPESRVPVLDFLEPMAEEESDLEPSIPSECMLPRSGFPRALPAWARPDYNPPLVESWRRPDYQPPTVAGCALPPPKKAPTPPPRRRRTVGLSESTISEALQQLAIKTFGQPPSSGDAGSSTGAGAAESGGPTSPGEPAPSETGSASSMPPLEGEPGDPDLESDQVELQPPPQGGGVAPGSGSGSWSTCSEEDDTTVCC
UniProt Q8NEB9: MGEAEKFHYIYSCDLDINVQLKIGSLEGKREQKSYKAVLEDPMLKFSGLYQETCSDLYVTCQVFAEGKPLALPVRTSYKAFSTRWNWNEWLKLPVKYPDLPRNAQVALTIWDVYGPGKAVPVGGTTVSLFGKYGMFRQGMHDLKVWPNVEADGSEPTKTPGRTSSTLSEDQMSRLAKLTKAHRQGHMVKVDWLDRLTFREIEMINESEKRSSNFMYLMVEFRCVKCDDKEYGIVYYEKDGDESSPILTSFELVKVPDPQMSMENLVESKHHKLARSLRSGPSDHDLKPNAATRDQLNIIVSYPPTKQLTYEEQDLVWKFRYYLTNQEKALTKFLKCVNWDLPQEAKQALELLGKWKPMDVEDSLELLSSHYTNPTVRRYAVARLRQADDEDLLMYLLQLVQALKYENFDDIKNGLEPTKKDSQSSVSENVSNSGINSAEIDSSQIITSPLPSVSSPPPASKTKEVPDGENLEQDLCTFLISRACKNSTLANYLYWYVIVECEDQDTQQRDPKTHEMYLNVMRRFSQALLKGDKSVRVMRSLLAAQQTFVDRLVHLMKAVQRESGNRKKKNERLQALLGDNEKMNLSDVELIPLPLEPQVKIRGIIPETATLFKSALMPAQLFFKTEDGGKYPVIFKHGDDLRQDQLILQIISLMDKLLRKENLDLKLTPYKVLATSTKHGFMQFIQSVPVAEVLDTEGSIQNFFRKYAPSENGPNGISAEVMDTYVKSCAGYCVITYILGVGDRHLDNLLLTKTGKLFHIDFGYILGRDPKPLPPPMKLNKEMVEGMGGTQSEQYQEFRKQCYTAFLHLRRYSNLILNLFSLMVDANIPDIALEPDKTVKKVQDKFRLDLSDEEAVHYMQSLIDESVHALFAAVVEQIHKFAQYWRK
UniProt Q99570: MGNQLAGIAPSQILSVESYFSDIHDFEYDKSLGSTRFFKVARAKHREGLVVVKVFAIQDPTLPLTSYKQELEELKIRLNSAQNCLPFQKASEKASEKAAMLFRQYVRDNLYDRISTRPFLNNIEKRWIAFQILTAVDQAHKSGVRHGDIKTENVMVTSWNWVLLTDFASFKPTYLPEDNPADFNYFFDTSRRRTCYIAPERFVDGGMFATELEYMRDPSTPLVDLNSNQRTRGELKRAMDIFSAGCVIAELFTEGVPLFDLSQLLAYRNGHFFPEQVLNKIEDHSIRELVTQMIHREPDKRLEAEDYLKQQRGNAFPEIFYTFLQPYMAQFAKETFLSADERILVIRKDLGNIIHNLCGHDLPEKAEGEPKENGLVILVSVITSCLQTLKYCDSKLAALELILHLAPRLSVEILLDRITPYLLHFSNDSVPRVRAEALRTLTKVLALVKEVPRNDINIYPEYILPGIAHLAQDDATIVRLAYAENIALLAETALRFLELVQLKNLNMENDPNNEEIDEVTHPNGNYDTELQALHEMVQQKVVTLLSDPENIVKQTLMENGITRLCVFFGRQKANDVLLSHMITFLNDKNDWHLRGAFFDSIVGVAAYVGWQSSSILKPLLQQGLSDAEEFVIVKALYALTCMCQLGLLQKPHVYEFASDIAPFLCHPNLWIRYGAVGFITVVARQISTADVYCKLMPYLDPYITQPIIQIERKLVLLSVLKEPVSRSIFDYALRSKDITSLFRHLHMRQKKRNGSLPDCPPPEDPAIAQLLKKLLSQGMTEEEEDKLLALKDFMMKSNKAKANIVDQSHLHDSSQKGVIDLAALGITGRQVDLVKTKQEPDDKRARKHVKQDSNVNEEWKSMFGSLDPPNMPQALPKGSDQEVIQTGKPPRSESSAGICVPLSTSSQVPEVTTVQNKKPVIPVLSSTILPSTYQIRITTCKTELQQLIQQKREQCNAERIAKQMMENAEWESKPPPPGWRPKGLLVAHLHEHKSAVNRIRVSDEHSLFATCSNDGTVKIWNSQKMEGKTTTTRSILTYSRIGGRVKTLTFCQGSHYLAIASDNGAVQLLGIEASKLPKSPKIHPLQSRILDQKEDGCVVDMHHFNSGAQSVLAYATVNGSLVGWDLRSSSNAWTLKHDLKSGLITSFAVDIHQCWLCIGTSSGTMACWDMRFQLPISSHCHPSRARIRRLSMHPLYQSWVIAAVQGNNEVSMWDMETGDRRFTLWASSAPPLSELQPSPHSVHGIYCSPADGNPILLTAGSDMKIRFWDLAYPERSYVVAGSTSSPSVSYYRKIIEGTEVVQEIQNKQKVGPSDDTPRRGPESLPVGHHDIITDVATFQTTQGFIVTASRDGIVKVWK
UniProt Q14457: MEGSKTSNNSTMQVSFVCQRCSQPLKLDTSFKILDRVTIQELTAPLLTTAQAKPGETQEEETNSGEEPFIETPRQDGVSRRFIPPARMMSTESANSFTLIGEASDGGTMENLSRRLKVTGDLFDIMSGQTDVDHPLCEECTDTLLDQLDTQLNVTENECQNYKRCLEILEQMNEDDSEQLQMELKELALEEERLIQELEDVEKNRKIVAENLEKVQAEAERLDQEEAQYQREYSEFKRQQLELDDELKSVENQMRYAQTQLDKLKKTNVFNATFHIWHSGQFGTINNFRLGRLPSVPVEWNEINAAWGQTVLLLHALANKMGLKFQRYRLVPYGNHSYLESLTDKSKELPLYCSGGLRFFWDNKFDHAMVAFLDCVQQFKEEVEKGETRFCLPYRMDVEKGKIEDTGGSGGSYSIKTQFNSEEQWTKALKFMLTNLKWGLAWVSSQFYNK

Tests used:
[1] = molecular target: NS5A-WT-Flag (hepatitis C virus genotype 2a (JFH1)) (UniProt Q99IB8); assay: co-IP; HEK293FT cells transfected, lysed 48 h later in IP buffer (50 mM Tris HCl pH 7.5, 150 mM NaCl, 1% NP40); Flag-resin, Western blotting
Flag-Vps34 (human) [2] = molecular target: Flag-Vps34 (human) (UniProt Q8NEB9); assay: co-IP; Huh7 cells co-transfected, lysed 48 h later in IP buffer (50 mM Tris HCl pH 7.5, 150 mM NaCl, 1% NP40); Flag-resin, Western blotting; in some panels cells treated with control or RACK1 siRNA one day before
[3] = molecular target: Flag-tagged Vps15 (human) (UniProt Q99570); assay: co-IP; HEK293FT cells transfected, lysed 48 h later in IP buffer (50 mM Tris HCl pH 7.5, 150 mM NaCl, 1% NP40); Flag-resin, Western blotting
Flag-Vps34 (human) [4] = molecular target: Flag-Vps34 (human) (UniProt Q8NEB9); assay: as above
Flag-Beclin1 (human) = Flag-Beclin1 (human) (UniProt Q14457); assay: co-IP; Huh7 cells co-transfected, lysed 48 h later in IP buffer (50 mM Tris HCl pH 7.5, 150 mM NaCl, 1% NP40); Flag-resin, Western blotting; in some panels cells treated with control or RACK1 siRNA one day before

HA-tagged Beclin (from UniProt Q14457 1-450)
binding [1]: binds

NS5A-HA (from UniProt Q99IB8 1977-2442)
binding (Flag-Vps34 (human) [2]): binds

GFP-tagged NS5A-WT (from UniProt Q99IB8 1977-2442)
binding [3]: no binding | binding (Flag-Vps34 (human) [4]): binds | binding (Flag-Beclin1 (human)): binds
